Data on 40 targets can be found in the supplement of paper PMC7666118.

Chains of the proteins cited; added tags and fusions are not shown. Lines headed by an entry give the natural chain unless they say otherwise; changes in a name come on top.
UniProt Q6N043: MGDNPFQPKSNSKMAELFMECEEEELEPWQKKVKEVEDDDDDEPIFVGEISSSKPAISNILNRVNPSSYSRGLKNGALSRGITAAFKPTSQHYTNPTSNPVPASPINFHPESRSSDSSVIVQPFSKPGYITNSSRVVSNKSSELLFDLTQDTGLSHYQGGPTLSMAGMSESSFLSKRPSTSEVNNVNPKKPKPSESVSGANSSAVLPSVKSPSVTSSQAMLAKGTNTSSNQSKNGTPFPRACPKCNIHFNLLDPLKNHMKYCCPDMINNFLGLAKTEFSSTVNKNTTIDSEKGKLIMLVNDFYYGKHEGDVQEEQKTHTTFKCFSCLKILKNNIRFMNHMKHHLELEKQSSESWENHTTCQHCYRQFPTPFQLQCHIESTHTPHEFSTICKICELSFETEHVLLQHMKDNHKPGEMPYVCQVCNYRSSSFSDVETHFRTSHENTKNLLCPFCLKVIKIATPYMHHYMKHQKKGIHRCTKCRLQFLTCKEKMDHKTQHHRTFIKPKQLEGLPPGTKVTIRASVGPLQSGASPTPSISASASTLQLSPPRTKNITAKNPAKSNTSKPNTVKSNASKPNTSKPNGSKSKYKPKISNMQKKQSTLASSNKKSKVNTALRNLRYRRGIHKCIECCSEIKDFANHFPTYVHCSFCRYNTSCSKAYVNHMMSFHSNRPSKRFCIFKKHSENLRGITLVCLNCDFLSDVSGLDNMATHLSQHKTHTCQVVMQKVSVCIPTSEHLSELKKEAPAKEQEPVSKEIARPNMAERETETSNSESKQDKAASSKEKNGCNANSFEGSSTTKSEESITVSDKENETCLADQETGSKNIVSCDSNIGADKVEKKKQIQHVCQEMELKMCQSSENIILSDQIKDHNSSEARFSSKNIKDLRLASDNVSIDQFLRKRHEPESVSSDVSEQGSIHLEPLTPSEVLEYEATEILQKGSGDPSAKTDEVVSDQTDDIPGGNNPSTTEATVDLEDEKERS
UniProt Q96KM6: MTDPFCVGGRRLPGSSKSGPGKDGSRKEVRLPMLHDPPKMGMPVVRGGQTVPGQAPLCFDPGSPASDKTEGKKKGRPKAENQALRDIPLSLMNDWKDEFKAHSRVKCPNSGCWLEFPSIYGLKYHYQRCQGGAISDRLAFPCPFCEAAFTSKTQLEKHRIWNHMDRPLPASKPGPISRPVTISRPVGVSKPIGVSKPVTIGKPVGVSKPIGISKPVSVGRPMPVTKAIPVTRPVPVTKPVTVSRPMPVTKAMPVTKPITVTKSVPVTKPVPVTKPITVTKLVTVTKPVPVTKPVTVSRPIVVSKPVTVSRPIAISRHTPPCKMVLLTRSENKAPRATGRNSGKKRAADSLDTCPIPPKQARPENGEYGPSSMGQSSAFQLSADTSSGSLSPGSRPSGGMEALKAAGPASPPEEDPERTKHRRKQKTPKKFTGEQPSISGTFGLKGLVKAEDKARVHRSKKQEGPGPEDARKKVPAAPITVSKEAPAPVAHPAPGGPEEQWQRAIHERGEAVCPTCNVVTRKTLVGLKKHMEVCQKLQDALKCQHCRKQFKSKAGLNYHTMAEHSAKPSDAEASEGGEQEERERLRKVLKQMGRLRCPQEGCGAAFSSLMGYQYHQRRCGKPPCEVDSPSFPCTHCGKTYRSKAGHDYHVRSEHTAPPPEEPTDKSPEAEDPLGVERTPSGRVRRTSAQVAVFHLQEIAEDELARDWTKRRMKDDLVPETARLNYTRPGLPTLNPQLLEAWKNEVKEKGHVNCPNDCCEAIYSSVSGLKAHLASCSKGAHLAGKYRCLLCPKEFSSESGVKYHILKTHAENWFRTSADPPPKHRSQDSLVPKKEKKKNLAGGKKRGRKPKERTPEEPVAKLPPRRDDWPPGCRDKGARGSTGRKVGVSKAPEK
UniProt P61981: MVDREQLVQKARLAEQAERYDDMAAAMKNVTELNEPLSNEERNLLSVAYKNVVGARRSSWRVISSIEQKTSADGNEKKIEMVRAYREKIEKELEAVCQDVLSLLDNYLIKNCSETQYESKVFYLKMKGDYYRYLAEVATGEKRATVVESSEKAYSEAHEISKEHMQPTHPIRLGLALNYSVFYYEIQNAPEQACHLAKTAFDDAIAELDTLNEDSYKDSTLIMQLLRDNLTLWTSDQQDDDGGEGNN
UniProt O94967: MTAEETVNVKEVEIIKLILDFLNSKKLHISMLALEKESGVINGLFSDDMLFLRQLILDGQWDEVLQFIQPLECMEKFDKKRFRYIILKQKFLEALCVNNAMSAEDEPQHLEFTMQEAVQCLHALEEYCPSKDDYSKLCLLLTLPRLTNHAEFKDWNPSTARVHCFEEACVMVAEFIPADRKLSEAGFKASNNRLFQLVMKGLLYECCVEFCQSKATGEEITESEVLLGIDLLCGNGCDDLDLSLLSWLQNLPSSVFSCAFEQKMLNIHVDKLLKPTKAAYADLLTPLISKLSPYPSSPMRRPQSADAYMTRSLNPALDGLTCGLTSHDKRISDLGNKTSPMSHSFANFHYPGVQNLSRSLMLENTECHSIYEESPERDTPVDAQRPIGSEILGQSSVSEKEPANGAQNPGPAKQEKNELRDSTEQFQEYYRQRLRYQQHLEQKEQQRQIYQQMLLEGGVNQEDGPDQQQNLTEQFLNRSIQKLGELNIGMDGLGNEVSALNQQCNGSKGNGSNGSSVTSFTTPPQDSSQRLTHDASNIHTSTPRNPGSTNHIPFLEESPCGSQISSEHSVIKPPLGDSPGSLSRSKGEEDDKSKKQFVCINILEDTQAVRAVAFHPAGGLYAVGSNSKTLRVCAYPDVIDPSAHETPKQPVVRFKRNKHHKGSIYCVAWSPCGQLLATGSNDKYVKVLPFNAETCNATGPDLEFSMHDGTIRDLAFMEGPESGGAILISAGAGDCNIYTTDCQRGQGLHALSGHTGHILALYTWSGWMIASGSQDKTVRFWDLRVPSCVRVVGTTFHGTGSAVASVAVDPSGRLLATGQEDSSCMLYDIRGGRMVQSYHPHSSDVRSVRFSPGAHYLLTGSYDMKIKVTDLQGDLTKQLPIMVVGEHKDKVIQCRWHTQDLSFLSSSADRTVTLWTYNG
UniProt Q6RFH5: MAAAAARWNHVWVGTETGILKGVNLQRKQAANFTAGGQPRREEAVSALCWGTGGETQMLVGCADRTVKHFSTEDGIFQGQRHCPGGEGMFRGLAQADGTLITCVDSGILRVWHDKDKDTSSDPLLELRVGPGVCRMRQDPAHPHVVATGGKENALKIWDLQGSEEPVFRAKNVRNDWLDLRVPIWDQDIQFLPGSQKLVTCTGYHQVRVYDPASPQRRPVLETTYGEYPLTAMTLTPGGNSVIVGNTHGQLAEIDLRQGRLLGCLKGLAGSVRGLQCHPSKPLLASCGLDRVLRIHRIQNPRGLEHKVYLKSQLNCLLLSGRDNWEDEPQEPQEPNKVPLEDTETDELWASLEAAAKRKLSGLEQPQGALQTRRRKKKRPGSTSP
UniProt O43167: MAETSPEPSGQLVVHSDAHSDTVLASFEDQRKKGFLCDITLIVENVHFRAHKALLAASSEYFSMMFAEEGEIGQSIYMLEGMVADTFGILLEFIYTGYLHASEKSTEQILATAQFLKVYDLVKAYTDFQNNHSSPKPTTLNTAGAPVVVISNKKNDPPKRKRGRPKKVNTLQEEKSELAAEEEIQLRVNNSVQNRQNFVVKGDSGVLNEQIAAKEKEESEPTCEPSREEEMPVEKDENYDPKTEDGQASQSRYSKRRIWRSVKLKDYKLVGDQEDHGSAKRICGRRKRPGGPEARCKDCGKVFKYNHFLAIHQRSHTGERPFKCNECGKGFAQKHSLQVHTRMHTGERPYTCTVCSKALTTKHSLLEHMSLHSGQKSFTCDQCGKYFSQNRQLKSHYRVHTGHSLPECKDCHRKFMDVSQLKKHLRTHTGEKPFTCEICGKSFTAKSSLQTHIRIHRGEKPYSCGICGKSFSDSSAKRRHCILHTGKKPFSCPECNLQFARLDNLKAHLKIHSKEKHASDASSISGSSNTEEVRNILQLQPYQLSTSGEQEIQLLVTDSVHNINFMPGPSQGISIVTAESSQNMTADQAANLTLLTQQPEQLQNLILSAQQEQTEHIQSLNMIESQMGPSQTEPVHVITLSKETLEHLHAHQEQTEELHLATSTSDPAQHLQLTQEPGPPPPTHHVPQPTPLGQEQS
UniProt Q9UL40: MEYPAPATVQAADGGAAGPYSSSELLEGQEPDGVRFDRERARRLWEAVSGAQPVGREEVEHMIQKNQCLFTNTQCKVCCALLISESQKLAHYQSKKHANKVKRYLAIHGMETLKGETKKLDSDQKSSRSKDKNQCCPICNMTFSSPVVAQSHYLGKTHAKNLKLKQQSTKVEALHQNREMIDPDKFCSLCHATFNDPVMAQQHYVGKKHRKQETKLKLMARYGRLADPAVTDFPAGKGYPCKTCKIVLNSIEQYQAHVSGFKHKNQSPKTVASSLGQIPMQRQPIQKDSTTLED
UniProt P25490, whole entry: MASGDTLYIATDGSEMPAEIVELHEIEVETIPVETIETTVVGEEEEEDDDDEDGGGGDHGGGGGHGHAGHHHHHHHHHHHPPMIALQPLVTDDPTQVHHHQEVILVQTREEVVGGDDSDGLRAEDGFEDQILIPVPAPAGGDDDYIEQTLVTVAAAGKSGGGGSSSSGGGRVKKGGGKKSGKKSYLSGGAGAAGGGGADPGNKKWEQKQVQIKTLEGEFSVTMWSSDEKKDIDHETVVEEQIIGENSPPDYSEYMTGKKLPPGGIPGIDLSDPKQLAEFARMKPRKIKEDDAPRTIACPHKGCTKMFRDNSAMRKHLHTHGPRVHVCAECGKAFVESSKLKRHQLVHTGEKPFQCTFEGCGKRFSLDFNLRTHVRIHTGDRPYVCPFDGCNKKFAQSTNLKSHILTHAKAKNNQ
UniProt Q15776: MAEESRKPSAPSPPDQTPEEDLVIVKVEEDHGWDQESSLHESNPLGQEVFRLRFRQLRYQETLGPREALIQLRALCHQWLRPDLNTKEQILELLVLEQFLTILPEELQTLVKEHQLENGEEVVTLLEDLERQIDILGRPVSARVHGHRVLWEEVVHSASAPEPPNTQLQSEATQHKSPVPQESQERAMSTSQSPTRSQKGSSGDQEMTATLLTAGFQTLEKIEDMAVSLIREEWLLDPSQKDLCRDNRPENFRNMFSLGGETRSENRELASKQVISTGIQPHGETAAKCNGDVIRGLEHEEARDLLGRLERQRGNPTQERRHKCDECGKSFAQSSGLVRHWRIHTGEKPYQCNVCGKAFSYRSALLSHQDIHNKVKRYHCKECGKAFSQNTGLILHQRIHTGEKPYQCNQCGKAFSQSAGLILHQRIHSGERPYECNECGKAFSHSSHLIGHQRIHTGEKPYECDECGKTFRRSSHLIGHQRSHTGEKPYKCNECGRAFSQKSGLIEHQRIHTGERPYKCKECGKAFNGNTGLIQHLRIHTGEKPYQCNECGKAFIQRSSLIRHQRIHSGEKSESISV
UniProt Q9H900: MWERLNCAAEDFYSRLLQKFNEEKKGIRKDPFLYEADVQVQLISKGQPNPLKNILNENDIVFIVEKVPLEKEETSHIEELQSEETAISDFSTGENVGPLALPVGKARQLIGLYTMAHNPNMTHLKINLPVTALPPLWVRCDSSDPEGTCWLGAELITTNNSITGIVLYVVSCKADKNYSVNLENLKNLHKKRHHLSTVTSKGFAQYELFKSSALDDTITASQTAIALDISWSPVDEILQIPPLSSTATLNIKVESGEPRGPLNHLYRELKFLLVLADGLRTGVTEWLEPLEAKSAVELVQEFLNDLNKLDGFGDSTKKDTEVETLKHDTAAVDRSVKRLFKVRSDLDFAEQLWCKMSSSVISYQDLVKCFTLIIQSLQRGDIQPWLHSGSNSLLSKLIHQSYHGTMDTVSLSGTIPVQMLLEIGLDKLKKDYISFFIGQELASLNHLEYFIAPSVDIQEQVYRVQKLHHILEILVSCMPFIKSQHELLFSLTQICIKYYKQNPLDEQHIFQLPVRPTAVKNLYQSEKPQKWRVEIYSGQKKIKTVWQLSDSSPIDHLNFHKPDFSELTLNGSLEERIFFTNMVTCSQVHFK
UniProt P98170, whole entry: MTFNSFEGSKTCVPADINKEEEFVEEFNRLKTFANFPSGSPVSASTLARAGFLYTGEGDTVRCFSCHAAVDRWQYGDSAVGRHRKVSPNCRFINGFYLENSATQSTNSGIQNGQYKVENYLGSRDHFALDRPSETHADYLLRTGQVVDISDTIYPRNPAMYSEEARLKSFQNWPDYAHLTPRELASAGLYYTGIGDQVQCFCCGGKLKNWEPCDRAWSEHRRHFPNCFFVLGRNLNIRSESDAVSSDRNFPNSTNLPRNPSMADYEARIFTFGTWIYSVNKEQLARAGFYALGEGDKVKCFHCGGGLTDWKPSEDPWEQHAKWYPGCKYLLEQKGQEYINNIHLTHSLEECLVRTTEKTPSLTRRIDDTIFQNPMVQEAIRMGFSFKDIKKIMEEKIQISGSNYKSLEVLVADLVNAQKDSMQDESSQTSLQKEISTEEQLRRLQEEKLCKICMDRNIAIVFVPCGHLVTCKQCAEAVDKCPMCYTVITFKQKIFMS

Some of the results follow.

Compound in this experiment: COc1ccc(Cn2ccc3cc(C)c(C(=O)NO)cc32)cc1
Kind of experiment: dose-dependent thermal stabilisation call (2D-TPP, DLPTP, 10% FDR) (binary (1 = stabilised)); higher = stabilised by the compound. Particulars: system: HL-60 intact cells; concentration range 0.04-10 µM. Here is the method: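 2D thermal proteome profiling in intact HL-60 cells treated with BRD-3811 (0, 0.04, 0.29, 2, 10 uM) for 90 min at 37 C, then heated 3 min at one of 12 temperatures (42-63.9 C). Soluble protein was quantified by TMT10 MS. The value is the DLPTP call of the paper: dose-dependent thermal stabilisation over all temperatures at 10% FDR (F-test of a dose-response against a flat model); one experiment, one call per tested protein.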
Take ZNF800 (UniProt Q2TB10): the “dose-dependent thermal stabilisation call” value is inactive: 0.
In the case of WDR77 (UniProt Q9BQA1) it was inactive: 0; in that of ZNF280D (UniProt Q6N043), inactive: 0; in that of ZDHHC18 (UniProt Q9NUE0), inactive: 0.
Regarding ZMYM2 (UniProt Q9UBW7), the “dose-dependent thermal stabilisation call” value is inactive: 0.
For the target WTAP (UniProt Q15007), the “dose-dependent thermal stabilisation call” value was inactive: 0.
For ZNF512B (UniProt Q96KM6), the “dose-dependent thermal stabilisation call” value was inactive: 0.
On to YWHAG (UniProt P61981), for which the “dose-dependent thermal stabilisation call” value was inactive: 0.
Consider ZCCHC11 (UniProt Q5TAX3), for which the “dose-dependent thermal stabilisation call” value was inactive: 0.
As to XPOT (UniProt O43592), the “dose-dependent thermal stabilisation call” value was inactive: 0.
Under XPC (UniProt Q01831) stands inactive: 0.
Under WDSOF1 (UniProt Q9NV06) stands inactive: 0.
In the case of ZNF428 (UniProt Q96B54) it was inactive: 0; in that of XRN1 (UniProt Q8IZH2), inactive: 0.
As for ZCCHC3 (UniProt Q9NUD5), the “dose-dependent thermal stabilisation call” value was inactive: 0.
Under WDR47 (UniProt O94967) stands inactive: 0; under WDR74 (UniProt Q6RFH5), inactive: 0; under WDR68 (UniProt P61962), inactive: 0.
As to ZBTB24 (UniProt O43167), the “dose-dependent thermal stabilisation call” value is inactive: 0.
Under ZNF346 (UniProt Q9UL40) stands inactive: 0; under YY1 (UniProt P25490), inactive: 0; under YLPM1 (UniProt P49750), inactive: 0.
As to ZC3HC1 (UniProt Q86WB0), the “dose-dependent thermal stabilisation call” value was inactive: 0.
As to ZNF192 (UniProt Q15776), the “dose-dependent thermal stabilisation call” value was inactive: 0.
With ZMYM3 (UniProt Q14202), the “dose-dependent thermal stabilisation call” value is inactive: 0.
Regarding ZWILCH (UniProt Q9H900), the “dose-dependent thermal stabilisation call” value is inactive: 0.
Turning to ZNF516 (UniProt Q92618), the “dose-dependent thermal stabilisation call” value is inactive: 0.
Take ZNF146 (UniProt Q15072): the “dose-dependent thermal stabilisation call” value was inactive: 0.
Turning to WDR89 (UniProt Q96FK6), the “dose-dependent thermal stabilisation call” value was inactive: 0.
As for XPO6 (UniProt Q96QU8), the “dose-dependent thermal stabilisation call” value was inactive: 0.
Take ZEB2 (UniProt O60315): the “dose-dependent thermal stabilisation call” value is inactive: 0.
Take ZDHHC5 (UniProt Q9C0B5): the “dose-dependent thermal stabilisation call” value is inactive: 0.
In the case of ZBTB9 (UniProt Q96C00) it was inactive: 0; in that of WRN (UniProt Q14191), inactive: 0; in that of XYLT1 (UniProt Q86Y38), inactive: 0.
Under XIAP (UniProt P98170) stands inactive: 0; under WDR6 (UniProt Q9NNW5), inactive: 0; under XRCC5 (UniProt P13010), inactive: 0.
For XRCC6 (UniProt P12956), the “dose-dependent thermal stabilisation call” value was inactive: 0.
As to ZNF143 (UniProt P52747), the “dose-dependent thermal stabilisation call” value is inactive: 0.
